Assay [1] concerns the target T1, Exd (in the EMSA) (Drosophila) (UniProt P40427).
T1 sequence: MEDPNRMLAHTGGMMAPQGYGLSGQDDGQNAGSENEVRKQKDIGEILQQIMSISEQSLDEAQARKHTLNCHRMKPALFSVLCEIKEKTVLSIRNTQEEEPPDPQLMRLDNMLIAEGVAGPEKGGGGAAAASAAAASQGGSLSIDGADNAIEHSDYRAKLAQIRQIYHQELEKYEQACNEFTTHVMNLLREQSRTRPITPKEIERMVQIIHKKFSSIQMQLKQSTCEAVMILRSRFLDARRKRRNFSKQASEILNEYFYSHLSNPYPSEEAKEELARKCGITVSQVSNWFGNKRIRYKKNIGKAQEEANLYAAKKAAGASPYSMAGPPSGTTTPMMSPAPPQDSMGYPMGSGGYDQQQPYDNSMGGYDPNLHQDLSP
Description: native gel or EMSA; EMSA in 20 μl with radiolabelled cycE probe; Abd-B proteins in vitro translated, with Exd and Hth; the trimeric protein complex is seen on the DNA. A general note: In EMSA bound probe runs differently from free probe, usually more slowly.

Assay [2] addresses T2, Hth (in the EMSA) (Drosophila) (UniProt O46339).
T2 sequence: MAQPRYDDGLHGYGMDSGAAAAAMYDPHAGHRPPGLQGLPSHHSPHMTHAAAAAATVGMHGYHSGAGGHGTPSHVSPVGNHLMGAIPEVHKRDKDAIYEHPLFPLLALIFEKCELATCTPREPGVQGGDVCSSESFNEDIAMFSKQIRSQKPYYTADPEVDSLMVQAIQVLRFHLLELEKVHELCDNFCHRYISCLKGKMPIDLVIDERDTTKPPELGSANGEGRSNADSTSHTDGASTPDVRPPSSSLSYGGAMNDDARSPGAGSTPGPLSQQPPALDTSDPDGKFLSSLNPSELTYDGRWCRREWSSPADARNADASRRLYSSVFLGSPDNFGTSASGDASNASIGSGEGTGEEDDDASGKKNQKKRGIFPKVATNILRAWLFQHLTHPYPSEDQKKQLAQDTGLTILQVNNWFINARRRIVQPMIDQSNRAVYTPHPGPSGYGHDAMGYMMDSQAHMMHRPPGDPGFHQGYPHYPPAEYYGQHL
The description is as above.

Assay [3] concerns the target T1, Exd (in the EMSA) (Drosophila). The experiment in a line: native gel or EMSA; EMSA in 20 μl with radiolabelled DllR^con (Dll^con) probe; Abd-B proteins in vitro translated, with Exd and Hth; the trimeric protein complex is seen on the DNA.
Assay [4] deals with T2, Hth (in the EMSA) (Drosophila). The description is as above.
The target of assay [5] is T3, VN::Exd (Extradenticle fused to the N-terminal part of Venus) (Drosophila) (UniProt P40427).
T3 sequence: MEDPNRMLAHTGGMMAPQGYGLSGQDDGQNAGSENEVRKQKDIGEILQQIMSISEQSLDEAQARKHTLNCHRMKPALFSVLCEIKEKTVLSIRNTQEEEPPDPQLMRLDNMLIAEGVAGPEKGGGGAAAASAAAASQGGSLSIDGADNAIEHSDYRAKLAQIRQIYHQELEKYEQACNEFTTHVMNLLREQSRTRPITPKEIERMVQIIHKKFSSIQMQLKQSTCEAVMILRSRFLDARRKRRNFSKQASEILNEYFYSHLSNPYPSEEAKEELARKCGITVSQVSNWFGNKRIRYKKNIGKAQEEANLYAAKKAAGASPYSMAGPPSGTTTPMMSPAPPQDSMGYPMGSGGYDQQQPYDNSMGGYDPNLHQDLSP
The experiment in a line: split reporter; same BiFC in the dorsal pupal abdomen, read in the polytene larval epidermal cells (LECs), which also express both fusion proteins.

Assay [6] addresses T3, VN::Exd (Extradenticle fused to the N-terminal part of Venus) (Drosophila). The experiment in a line: split reporter; BiFC with Venus fragments, UAS-Abd-B::VC (or W>A) and UAS-VN::Exd co-expressed with pnr-Gal4/Gal80^ts in the dorsal pupal abdomen, shift 18°C to 29°C in third instar; signal in histoblasts.
Assay [7] addresses T4, Flag::Hth (Homothorax, Flag-tagged) (Drosophila) (UniProt O46339).
T4 sequence: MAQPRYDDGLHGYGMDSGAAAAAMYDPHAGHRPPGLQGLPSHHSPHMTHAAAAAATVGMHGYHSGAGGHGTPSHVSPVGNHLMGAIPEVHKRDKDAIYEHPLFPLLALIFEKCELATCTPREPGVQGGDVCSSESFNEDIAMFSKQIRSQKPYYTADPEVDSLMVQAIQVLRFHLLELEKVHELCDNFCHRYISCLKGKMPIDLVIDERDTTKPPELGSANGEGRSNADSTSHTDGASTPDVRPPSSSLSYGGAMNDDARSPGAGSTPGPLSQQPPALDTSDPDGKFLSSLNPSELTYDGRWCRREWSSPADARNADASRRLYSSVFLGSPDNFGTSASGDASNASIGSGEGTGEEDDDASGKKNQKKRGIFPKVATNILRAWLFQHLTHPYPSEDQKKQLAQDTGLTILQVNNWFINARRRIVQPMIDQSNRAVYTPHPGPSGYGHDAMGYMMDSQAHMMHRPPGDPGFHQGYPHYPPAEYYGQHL
Description: co-IP; SF9 extracts with Flag::Hth and HA::Abd-B only, without Exd, on anti-Flag resin; Western blot by the tags.

The target in assay [8] is T4, Flag::Hth (Homothorax, Flag-tagged) (Drosophila). Description: co-IP; SF9 extracts with Flag::Hth, His::Exd and HA::Abd-B (wild type or W>A) mixed and incubated on anti-Flag resin; lysis solution 140 mM KCl, 5% glycerol, 2.5% MgCl2, 25 mM Hepes pH 7.8, 10 mM imidazole; Western blot by the tags.

No constants are given. Whether binding was seen depends on the method and setting. For part of these data: Binding seen in cells or lysates may run through a third protein. Some binding calls cover weakened binding; strength is not graded here. For part of these data: Sequences can lack the tags named with a protein.

Take “Abd-B (in vitro translated, for EMSA) (from UniProt P09087 1-493)”: the binding entry in assay [1], in assay [2], in assay [3] and in assay [4] was “binds” in each case.

For the molecule “Abd-B::VC (Abdominal-B fused to the C-terminal part of Venus) (from UniProt P09087 1-493)”, the binding result in assay [5] was “no binding (condition: in larval epidermal cells (LECs))”; in assay [6], “binds”.

For “HA::Abd-B (Abdominal-B, wild type, HA-tagged) (from UniProt P09087 1-493)”, the binding result in assay [7] and in assay [8] was “binds” each time.

B1: His::Exd (Extradenticle, His-tagged) (protein, UniProt P40427 1-376)
chain: MEDPNRMLAHTGGMMAPQGYGLSGQDDGQNAGSENEVRKQKDIGEILQQIMSISEQSLDEAQARKHTLNCHRMKPALFSVLCEIKEKTVLSIRNTQEEEPPDPQLMRLDNMLIAEGVAGPEKGGGGAAAASAAAASQGGSLSIDGADNAIEHSDYRAKLAQIRQIYHQELEKYEQACNEFTTHVMNLLREQSRTRPITPKEIERMVQIIHKKFSSIQMQLKQSTCEAVMILRSRFLDARRKRRNFSKQASEILNEYFYSHLSNPYPSEEAKEELARKCGITVSQVSNWFGNKRIRYKKNIGKAQEEANLYAAKKAAGASPYSMAGPPSGTTTPMMSPAPPQDSMGYPMGSGGYDQQQPYDNSMGGYDPNLHQDLSP
Regarding B1, in assay [8], the binding entry is reported as “binds”.
